Source: PubChem BioAssay AID1224830 (NIAID, 2016)

Aim: 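Host factors that control LPS-induced TNF expression in human macrophages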 (primary screen)
Cell system: human THP-1 monocytic leukaemia cells, TNF dual-luciferase reporter clone, PMA-differentiated to macrophage-like cells
Knock-down reagent: siRNA pool against human genes, 50 nM
Duration: LPS for 4 h, given about 3 days after siRNA transfection
Challenge: bacterial LPS (TLR4 ligand), 10 ng/ml
Measurement: 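Ratio of firefly to renilla light, scaled to the plate median and expressed as a robust z-score per replicate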
Scale: TNF reporter robust z-score: higher = stronger TNF reporter response to LPS
Hit rule: 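a well is active when its z-score exceeds 2.8 or falls below -1.5; control wells carry no call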
In all, the deposit lists about 18,000 reagents; this is a part drawn at random. Over the whole deposit, about 2,900 (16%) were called active. 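Calls are made per well; low scores hint the gene aids the LPS response, high scores that it dampens it.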 Repeated entries: four replicate wells of each siRNA pool.

{"Target gene": "ALOXE3 (arachidonate epidermal lipoxygenase 3)", "TNF reporter robust z-score": -0.05, "Call": "inactive"}
{"Target gene": "ALOXE3 (arachidonate epidermal lipoxygenase 3)", "TNF reporter robust z-score": -1.02, "Call": "inactive"}
{"Target gene": "ALOXE3 (arachidonate epidermal lipoxygenase 3)", "TNF reporter robust z-score": -0.06, "Call": "inactive"}
{"Target gene": "ALOXE3 (arachidonate epidermal lipoxygenase 3)", "TNF reporter robust z-score": 1.8, "Call": "inactive"}
{"Target gene": "HSPA9 (heat shock protein family A (Hsp70) member 9)", "TNF reporter robust z-score": 0.13, "Call": "inactive"}
{"Target gene": "HSPA9 (heat shock protein family A (Hsp70) member 9)", "TNF reporter robust z-score": 0.64, "Call": "inactive"}
{"Target gene": "HSPA9 (heat shock protein family A (Hsp70) member 9)", "TNF reporter robust z-score": 0.11, "Call": "inactive"}
{"Target gene": "HSPA9 (heat shock protein family A (Hsp70) member 9)", "TNF reporter robust z-score": 0.18, "Call": "inactive"}
{"Target gene": "TSPO (translocator protein)", "TNF reporter robust z-score": 0.03, "Call": "inactive"}
{"Target gene": "TSPO (translocator protein)", "TNF reporter robust z-score": -0.61, "Call": "inactive"}
{"Target gene": "TSPO (translocator protein)", "TNF reporter robust z-score": -0.35, "Call": "inactive"}
{"Target gene": "TSPO (translocator protein)", "TNF reporter robust z-score": -0.88, "Call": "inactive"}
{"Target gene": "TENT4A (terminal nucleotidyltransferase 4A)", "TNF reporter robust z-score": 1.09, "Call": "inactive"}
{"Target gene": "TENT4A (terminal nucleotidyltransferase 4A)", "TNF reporter robust z-score": 0.52, "Call": "inactive"}
{"Target gene": "TENT4A (terminal nucleotidyltransferase 4A)", "TNF reporter robust z-score": 0.97, "Call": "inactive"}
{"Target gene": "TENT4A (terminal nucleotidyltransferase 4A)", "TNF reporter robust z-score": 0.87, "Call": "inactive"}
{"Target gene": "ANKAR (ankyrin and armadillo repeat containing)", "TNF reporter robust z-score": 0.59, "Call": "inactive"}
{"Target gene": "ANKAR (ankyrin and armadillo repeat containing)", "TNF reporter robust z-score": 0.62, "Call": "inactive"}
{"Target gene": "ANKAR (ankyrin and armadillo repeat containing)", "TNF reporter robust z-score": 0.31, "Call": "inactive"}
{"Target gene": "ANKAR (ankyrin and armadillo repeat containing)", "TNF reporter robust z-score": 2.57, "Call": "inactive"}
{"Target gene": "CDRT4 (CMT1A duplicated region transcript 4)", "TNF reporter robust z-score": 1.54, "Call": "inactive"}
{"Target gene": "CDRT4 (CMT1A duplicated region transcript 4)", "TNF reporter robust z-score": 2.01, "Call": "inactive"}
{"Target gene": "CDRT4 (CMT1A duplicated region transcript 4)", "TNF reporter robust z-score": 0.83, "Call": "inactive"}
{"Target gene": "CDRT4 (CMT1A duplicated region transcript 4)", "TNF reporter robust z-score": -0.53, "Call": "inactive"}
{"Target gene": "EXOC1 (exocyst complex component 1)", "TNF reporter robust z-score": -0.14, "Call": "inactive"}
{"Target gene": "EXOC1 (exocyst complex component 1)", "TNF reporter robust z-score": 0.22, "Call": "inactive"}
{"Target gene": "EXOC1 (exocyst complex component 1)", "TNF reporter robust z-score": -0.34, "Call": "inactive"}
{"Target gene": "EXOC1 (exocyst complex component 1)", "TNF reporter robust z-score": -0.2, "Call": "inactive"}
{"Target gene": "GALNT13 (polypeptide N-acetylgalactosaminyltransferase 13)", "TNF reporter robust z-score": -0.9, "Call": "inactive"}
{"Target gene": "GALNT13 (polypeptide N-acetylgalactosaminyltransferase 13)", "TNF reporter robust z-score": 1.97, "Call": "inactive"}
{"Target gene": "GALNT13 (polypeptide N-acetylgalactosaminyltransferase 13)", "TNF reporter robust z-score": -0.88, "Call": "inactive"}
{"Target gene": "GALNT13 (polypeptide N-acetylgalactosaminyltransferase 13)", "TNF reporter robust z-score": -0.06, "Call": "inactive"}
